Experimental data reported in PMC8074078.
No constants are given. Whether binding was seen depends on the method and setting.

Protein sequences, listed by entry. Tags and fused reporters are not part of them. Lines headed by an entry give the natural chain unless they say otherwise; changes in a name come on top. Chains listed by the source or under a name are the forms on record and can include a tag or linker.
His6-PACRG (Parkin co-regulated gene) (Q96M98-2, form named): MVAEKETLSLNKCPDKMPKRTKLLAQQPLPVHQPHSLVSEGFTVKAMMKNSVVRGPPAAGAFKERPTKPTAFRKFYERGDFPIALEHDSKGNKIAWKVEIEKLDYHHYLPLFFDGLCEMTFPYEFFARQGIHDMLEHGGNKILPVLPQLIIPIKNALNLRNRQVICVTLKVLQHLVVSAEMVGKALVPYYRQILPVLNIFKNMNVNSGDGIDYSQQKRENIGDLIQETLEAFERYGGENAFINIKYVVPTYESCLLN

What was measured:
His6-GST-PACRG (human) = His6-GST-PACRG (human) (UniProt Q96M98); assay: SEC; Sephacryl S-200 gel filtration (1.6 cm x 50 cm), 50 mM Tris-HCl, 150 mM NaCl, 1 mM PMSF, 1 mM EDTA, pH 7.0; elution volume compared with BSA and cytochrome c; both purified
[1] = biological target: His6-PACRG (Parkin co-regulated gene) (human) (UniProt Q96M98); assay: as above

For “His6-GST-PACRG (from UniProt Q96M98-2 1-257)”, which binding (His6-GST-PACRG (human)) is on record?
The binding was “no binding”.

For “His6-PACRG (Parkin co-regulated gene) (from UniProt Q96M98-2 1-257)”, which binding [1] is on record?
The binding was “no binding”.
